This series in a line: PSM production in culture filtrates of CC30 strains by HPLC/MS.

Consider one compound from publication PMC4140855, “Production of an Attenuated Phenol-Soluble Modulin Variant Unique to the MRSA Clonal Complex 30 Increases Severity of Bloodstream Infection” (PLoS Pathogens, 2014).

Each structure is given as a SMILES string.

`CSCC[C@H](NC=O)C(=O)N[C@@H](CCC(=O)O)C(=O)N[C@@H](Cc1ccccc1)C(=O)N[C@H](C(=O)N[C@@H](C)C(=O)N[C@@H](CCCCN)C(=O)N[C@@H](CC(C)C)C(=O)N[C@@H](Cc1ccccc1)C(=O)N[C@@H](CCCCN)C(=O)N[C@@H](Cc1ccccc1)C(=O)N[C@@H](Cc1ccccc1)C(=O)N[C@@H](CCCCN)C(=O)N[C@@H](CC(=O)O)C(=O)N[C@@H](CC(C)C)C(=O)N[C@@H](CC(C)C)C(=O)NCC(=O)N[C@@H](CCCCN)C(=O)N[C@@H](Cc1ccccc1)C(=O)N[C@@H](CC(C)C)C(=O)NCC(=O)N[C@@H](CC(N)=O)C(=O)N[C@@H](CC(N)=O)C(=O)O)C(C)C` [PSMα3]: the “Average PSMα3 production, contemporary CC30 strains” value (contemporary, difference to historic not significant) is on record as 0.99×10^7 intensity units. In addition, for the setting “historic”, the “Average PSMα3 production, historic CC30 strains” value is 1.16×10^8 intensity units.
